# Measured values from the supplement of paper PMC12823440, “Inhibitors supercharge kinase turnover through native proteolytic circuits” (Nature, 2025).
# Amino acid sequences for entries named in this document (tags omitted). A change or cut given only in a name is not applied to a line headed by its entry.
# UniProt Q05397, whole entry, looked up: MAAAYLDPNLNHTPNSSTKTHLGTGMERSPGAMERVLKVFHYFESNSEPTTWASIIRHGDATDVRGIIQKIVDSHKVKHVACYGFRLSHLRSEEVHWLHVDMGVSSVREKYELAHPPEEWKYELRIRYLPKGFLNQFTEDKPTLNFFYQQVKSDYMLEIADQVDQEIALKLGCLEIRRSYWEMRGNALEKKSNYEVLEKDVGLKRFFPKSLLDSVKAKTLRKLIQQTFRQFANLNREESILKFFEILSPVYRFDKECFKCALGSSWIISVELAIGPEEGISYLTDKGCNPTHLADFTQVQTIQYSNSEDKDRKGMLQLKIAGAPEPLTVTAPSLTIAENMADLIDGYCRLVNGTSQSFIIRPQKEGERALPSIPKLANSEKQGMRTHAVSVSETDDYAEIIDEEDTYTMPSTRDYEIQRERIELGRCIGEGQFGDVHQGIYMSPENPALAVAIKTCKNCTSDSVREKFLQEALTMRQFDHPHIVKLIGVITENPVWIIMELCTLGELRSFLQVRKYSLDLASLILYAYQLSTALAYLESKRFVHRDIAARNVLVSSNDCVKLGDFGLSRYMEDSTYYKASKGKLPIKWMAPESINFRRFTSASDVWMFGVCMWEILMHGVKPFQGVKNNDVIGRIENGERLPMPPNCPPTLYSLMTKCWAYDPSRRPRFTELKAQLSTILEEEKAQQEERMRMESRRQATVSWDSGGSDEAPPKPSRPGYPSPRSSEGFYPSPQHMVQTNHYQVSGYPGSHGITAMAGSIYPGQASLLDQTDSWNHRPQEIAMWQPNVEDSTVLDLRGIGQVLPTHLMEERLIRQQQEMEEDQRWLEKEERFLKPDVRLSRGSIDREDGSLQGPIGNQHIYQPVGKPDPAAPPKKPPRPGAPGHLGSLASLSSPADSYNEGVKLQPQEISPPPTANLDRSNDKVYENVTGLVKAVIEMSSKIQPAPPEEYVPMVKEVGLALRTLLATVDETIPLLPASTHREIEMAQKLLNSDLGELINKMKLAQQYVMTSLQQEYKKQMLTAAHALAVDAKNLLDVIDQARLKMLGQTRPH
# UniProt Q14289, whole entry, looked up: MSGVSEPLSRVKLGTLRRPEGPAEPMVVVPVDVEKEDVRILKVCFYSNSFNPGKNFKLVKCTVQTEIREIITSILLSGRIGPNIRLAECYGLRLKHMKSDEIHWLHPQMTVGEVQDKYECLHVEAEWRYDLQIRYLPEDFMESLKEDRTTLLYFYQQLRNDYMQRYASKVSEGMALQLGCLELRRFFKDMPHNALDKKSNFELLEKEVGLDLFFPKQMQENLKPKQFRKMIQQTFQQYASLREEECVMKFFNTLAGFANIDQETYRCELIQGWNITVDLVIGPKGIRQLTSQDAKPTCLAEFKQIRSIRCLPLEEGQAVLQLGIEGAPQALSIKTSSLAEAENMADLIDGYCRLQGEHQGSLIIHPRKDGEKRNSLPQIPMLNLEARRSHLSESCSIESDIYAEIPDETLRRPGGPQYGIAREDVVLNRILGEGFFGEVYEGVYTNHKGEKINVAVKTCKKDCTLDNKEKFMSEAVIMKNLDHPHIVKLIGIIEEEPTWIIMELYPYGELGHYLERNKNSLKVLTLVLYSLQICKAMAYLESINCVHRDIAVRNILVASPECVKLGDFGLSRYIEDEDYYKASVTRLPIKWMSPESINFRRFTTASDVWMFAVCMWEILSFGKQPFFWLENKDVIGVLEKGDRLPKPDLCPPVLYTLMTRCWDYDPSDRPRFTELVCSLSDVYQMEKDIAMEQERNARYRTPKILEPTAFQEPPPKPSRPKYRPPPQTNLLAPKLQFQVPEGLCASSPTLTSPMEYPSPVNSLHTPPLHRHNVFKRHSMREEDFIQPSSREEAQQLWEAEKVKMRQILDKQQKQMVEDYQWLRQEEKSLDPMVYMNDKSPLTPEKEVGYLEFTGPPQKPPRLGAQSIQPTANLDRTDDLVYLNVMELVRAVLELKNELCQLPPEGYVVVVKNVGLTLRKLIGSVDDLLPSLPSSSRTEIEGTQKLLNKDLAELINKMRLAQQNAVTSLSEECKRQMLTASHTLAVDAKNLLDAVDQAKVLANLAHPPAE
# UniProt Q13546: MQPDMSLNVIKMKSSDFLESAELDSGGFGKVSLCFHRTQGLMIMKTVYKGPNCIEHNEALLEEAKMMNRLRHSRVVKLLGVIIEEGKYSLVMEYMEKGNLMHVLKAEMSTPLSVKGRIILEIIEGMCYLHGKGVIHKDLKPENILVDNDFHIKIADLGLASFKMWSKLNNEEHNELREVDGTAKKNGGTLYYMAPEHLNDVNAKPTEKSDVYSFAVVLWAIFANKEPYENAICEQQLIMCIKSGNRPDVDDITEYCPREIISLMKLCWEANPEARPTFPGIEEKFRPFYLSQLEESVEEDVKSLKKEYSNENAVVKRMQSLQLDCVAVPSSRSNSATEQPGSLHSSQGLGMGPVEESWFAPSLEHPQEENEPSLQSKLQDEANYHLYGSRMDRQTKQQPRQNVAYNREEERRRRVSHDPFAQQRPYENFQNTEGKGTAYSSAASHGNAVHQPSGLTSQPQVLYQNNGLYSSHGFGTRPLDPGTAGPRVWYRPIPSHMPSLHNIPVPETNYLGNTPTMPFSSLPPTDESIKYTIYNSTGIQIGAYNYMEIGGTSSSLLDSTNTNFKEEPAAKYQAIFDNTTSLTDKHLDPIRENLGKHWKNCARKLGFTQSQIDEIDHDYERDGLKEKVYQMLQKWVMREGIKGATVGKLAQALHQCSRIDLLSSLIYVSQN
# UniProt Q01974, whole entry: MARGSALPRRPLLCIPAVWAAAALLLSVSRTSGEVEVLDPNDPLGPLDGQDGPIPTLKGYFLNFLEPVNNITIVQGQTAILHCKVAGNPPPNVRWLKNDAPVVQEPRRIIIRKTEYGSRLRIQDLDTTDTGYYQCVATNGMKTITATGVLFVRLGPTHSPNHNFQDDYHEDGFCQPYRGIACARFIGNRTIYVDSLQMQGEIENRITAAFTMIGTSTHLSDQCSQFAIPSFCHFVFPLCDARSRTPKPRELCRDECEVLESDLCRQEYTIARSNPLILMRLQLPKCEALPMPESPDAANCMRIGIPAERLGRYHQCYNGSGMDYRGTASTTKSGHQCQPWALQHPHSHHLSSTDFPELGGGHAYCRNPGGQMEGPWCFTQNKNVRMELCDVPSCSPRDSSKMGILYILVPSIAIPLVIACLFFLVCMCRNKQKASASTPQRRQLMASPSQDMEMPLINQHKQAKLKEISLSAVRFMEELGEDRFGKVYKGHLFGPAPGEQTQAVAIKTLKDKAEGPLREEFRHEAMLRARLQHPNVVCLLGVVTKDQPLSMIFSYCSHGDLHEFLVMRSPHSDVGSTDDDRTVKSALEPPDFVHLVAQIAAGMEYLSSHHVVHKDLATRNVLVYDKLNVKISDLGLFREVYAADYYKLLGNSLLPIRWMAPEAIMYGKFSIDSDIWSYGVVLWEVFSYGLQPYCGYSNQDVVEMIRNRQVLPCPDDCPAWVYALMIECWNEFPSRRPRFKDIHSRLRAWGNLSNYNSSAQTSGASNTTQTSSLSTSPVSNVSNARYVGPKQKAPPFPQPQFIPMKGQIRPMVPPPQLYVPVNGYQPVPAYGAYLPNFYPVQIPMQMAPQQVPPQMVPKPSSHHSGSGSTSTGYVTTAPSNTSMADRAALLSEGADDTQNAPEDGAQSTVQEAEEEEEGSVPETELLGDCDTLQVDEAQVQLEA
# UniProt Q15418, whole entry: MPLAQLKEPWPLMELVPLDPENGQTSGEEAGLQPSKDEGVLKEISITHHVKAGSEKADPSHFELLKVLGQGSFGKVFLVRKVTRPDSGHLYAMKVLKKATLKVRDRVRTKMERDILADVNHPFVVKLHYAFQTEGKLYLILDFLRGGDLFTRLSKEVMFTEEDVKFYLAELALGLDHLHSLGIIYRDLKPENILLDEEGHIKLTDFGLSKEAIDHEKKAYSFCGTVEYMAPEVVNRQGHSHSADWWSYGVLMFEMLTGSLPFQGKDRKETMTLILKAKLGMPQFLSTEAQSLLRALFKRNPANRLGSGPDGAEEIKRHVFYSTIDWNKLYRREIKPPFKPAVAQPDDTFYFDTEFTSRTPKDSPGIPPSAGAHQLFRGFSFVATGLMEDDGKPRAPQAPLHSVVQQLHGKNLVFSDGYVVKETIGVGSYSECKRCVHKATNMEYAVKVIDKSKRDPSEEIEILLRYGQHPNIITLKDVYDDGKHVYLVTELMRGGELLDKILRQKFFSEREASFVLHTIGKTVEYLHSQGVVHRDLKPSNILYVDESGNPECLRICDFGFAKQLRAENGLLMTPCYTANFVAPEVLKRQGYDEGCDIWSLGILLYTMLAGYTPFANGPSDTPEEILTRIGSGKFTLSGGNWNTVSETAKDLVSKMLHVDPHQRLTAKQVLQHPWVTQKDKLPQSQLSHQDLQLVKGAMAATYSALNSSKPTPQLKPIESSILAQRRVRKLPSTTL
# UniProt Q9Y6E0: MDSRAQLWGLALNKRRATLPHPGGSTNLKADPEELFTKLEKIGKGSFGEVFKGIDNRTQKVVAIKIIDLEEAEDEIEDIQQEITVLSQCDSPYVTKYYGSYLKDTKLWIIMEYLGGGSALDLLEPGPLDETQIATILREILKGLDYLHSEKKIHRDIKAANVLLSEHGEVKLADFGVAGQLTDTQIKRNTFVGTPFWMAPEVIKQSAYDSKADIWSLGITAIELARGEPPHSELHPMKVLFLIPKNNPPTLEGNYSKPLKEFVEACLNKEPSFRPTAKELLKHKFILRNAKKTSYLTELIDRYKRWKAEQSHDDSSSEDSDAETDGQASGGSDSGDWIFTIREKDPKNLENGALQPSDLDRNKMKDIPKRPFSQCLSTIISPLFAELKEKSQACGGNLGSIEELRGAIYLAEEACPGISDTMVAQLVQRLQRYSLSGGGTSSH
# UniProt Q15208: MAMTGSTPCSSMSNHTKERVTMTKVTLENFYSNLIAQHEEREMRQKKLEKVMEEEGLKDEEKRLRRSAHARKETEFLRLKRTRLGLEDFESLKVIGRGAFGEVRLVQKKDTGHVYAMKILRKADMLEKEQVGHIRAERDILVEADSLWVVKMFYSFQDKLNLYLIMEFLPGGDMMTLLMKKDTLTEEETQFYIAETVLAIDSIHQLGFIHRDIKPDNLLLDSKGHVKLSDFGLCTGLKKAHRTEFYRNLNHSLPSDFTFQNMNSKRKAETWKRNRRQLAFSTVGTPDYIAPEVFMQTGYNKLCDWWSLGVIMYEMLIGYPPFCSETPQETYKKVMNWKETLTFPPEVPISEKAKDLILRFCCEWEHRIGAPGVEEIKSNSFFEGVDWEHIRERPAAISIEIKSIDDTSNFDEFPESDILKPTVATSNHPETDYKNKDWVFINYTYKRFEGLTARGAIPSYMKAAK
# UniProt P29597: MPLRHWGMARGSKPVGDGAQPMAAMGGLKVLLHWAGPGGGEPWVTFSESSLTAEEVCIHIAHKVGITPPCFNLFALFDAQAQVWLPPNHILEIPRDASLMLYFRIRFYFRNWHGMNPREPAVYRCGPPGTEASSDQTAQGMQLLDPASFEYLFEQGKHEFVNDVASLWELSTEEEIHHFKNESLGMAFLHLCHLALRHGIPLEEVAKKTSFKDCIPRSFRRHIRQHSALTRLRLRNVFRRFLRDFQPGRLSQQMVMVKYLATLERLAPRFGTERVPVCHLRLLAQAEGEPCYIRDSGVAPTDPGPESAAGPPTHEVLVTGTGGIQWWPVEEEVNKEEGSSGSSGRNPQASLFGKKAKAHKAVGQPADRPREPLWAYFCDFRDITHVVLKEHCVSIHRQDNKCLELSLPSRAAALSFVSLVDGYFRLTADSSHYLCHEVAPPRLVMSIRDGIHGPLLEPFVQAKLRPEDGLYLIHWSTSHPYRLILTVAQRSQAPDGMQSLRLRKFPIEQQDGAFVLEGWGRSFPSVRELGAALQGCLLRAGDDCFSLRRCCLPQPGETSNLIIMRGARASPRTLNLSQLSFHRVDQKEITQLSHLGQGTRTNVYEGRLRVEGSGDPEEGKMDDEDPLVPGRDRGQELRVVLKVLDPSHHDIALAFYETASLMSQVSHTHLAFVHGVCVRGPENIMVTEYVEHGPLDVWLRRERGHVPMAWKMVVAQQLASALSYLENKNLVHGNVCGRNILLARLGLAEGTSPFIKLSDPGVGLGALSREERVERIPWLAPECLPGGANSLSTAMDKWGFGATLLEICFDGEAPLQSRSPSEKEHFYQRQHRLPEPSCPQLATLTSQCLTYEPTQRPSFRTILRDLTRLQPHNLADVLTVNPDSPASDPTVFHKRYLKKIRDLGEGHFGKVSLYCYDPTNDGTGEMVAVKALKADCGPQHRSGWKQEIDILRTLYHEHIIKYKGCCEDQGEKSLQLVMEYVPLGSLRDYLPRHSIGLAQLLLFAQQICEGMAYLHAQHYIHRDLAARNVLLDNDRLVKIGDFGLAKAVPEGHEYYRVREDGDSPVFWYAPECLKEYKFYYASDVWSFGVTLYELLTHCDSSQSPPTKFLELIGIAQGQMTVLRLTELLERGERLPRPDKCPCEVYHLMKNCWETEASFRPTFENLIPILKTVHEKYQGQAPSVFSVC
# The other results are listed elsewhere or left out. The calls rarely recur for the same compound in another form.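 In K562 cells expressing nanoluciferase-fused kinases, luminescence was recorded at 4 h intervals between 2 and 18 h, normalized as percent of control with DMSO at 100% and a positive control at 0%. A significant (2 sigma) signal drop marks a time point as decreased. The authors' rule for a hit is not shown and takes in more than the number of time points.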
# What was measured:
# Assay in all cases: number of time points (of 5) at which kinase-Nluc abundance scored as decreased, DMSO-normalised (count); higher = more persistent destabilization
# Conditions in all cases: K562; 2-18 h
# [1] = target: PRKCA (UniProt P17252)
# [2] = target: PTK2 (UniProt Q05397)
# [3] = target: PTK2B (UniProt Q14289)
# [4] = target: RAF1 (UniProt P04049)
# [5] = target: RAF1_S257L (clone: RAF1_mut) (UniProt P04049)
# [6] = target: RET (UniProt P07949)
# [7] = target: RET_M918T (clone: RET_mut) (UniProt P07949)
# [8] = target: RIOK1 (UniProt Q9BRS2)
# [9] = target: RIPK1 (UniProt Q13546)
# [10] = target: RIPK2 (UniProt O43353)
# [11] = target: ROR2 (UniProt Q01974)
# [12] = target: RPS6KA1 (UniProt Q15418)
# [13] = target: SPHK1 (UniProt Q9NYA1)
# [14] = target: SRC (UniProt P12931)
# [15] = target: STK24 (UniProt Q9Y6E0)
# [16] = target: STK38 (UniProt Q15208)
# [17] = target: SYK (UniProt P43405)
# [18] = target: TEC (UniProt P42680)
# [19] = target: TYK2 (UniProt P29597)
# [20] = target: ULK3 (UniProt Q6PHR2)
Compound,number of time points [1],number of time points [2],number of time points [3],number of time points [4],number of time points [5],number of time points [6],number of time points [7],number of time points [8],number of time points [9],number of time points [10],number of time points [11],number of time points [12],number of time points [13],number of time points [14],number of time points [15],number of time points [16],number of time points [17],number of time points [18],number of time points [19],number of time points [20]
O=C1NC(=O)C(c2cnc3ccccn23)=C1c1cn2c3c(cc(F)cc13)CNCC2 [GSK-3 inhibitor 1] (2.5 µM),0,0,0,0,0,0,0,0,0,0,0,0,0,0,0,0,0,0,0,0
COc1ccc(-c2coc3cc(O)ccc3c2=O)cc1 [Formononetin] (10 µM),0,0,0,0,1,0,0,0,0,0,0,0,0,0,0,0,0,0,0,0
COc1cc2ncnc(-n3nc(-c4ccccn4)nc3N)c2cc1OC (10 µM),0,3,0,0,0,0,0,0,0,0,0,0,0,0,0,0,0,0,0,0
C[C@@H]1CCNC(=O)c2cc3ccc(C(=O)Nc4nc5ccccc5n4CCCN(C)C)cc3n21 (10 µM),0,0,0,0,0,0,0,0,0,0,0,0,0,0,0,0,0,0,0,0
Cn1cc(C2=C(c3cccc(N)c3)C(=O)NC2=O)c2ccccc21 (10 µM),0,0,0,0,0,0,0,0,0,0,0,0,0,0,0,0,0,0,0,0
C=CC(=O)N1CCC[C@H](n2c(=O)n(-c3ccc(Oc4ccccc4)cc3)c3c(N)ncnc32)C1 [ONO-4059 (analog)] (10 µM),0,0,0,0,0,0,0,0,0,0,0,0,0,0,0,0,0,0,0,0
